From paper PMC3464245
Results are given in words; binding and its absence hold for the method and conditions named. Binding seen in cells or lysates may run through a third protein. Binding can be weak; no strength is given.

Molecular target: HA-tagged Kluyveromyces lactis Doa10 N-terminal fragment (HA-Nt-KlDoa10) (Kluyveromyces lactis) (UniProt Q6CIC6)
Test: co-IP; HA-Nt-KlDoa10 and Ct-KlDoa10-13MYC expressed alone or together from separate plasmids in K. lactis doa10Δ cells; membrane fraction solubilized in 1% digitonin; precipitated with anti-HA agarose beads; immunoblot with anti-MYC or anti-HA

binding: binds
Substance: 13MYC-tagged Kluyveromyces lactis Doa10 C-terminal fragment (Ct-KlDoa10-13MYC) (from UniProt Q6CIC7)
